In PMC4751545:
No constants are given. Whether binding was seen depends on the method and setting. In cells and extracts the contact can be indirect.

Amino acid sequences for entries named in this document (tags omitted).
UniProt Q7KU24: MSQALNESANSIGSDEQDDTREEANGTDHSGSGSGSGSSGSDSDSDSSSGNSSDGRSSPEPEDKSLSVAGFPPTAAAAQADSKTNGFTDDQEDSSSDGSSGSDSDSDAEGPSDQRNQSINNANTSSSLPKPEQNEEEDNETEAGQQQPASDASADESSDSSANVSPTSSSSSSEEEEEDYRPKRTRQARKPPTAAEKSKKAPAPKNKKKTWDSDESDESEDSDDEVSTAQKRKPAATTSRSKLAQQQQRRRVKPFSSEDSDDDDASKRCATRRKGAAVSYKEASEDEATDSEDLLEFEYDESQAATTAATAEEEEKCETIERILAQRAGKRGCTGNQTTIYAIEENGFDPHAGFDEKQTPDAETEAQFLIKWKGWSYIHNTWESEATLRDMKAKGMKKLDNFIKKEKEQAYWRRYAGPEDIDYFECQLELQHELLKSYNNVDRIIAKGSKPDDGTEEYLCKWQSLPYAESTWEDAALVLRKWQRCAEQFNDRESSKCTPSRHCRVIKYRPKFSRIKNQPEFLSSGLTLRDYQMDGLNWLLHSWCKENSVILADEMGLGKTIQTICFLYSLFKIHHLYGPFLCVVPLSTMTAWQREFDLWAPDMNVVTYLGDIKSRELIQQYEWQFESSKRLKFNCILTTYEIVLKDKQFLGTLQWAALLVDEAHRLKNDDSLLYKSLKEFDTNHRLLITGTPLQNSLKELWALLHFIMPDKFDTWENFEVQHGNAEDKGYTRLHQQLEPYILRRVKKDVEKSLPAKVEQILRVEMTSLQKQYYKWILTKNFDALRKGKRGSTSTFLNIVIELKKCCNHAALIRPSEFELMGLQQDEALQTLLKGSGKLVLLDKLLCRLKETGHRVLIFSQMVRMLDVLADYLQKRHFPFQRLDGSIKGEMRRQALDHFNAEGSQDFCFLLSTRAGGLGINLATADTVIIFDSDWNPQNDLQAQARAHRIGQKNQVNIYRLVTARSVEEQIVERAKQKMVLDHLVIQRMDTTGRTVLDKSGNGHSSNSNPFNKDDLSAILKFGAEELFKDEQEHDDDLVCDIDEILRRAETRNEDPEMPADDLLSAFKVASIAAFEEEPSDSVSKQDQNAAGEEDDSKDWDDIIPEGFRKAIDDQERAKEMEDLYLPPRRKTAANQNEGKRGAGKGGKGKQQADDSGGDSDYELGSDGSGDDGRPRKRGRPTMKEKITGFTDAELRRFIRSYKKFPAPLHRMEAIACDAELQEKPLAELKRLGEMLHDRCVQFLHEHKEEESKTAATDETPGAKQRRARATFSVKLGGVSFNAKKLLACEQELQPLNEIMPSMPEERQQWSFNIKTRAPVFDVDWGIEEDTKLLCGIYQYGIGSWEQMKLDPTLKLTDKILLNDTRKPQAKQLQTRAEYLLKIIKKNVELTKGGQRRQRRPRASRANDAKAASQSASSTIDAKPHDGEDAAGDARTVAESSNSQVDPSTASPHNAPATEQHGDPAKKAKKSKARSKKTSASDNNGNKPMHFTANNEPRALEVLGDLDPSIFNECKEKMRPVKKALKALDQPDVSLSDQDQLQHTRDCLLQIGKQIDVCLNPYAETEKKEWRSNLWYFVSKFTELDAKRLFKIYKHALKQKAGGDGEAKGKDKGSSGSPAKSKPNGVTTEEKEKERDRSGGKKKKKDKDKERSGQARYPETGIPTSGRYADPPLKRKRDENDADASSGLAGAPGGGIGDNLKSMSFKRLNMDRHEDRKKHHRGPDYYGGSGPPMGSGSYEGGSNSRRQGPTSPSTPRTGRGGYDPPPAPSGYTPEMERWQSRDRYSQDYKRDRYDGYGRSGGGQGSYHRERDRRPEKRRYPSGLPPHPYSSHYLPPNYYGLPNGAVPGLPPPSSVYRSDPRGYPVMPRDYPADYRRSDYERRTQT

Biological target: CHD1-HA fusion protein (CHD1 with C-terminal 3XHA epitope tag) (Drosophila melanogaster) (UniProt Q7KU24)
Assay: co-IP; 500 ug protein extract of 0-12 hr embryos with anti-HA affinity gel beads in HEGN100 buffer (10 mM HEPES pH 8.0, 1 mM EDTA, 100 mM NaCl, 0.05% Tween-20, 10% glycerol), 3 hr at 4°; five alternating washes of HEGN100 and HEGN500 (500 mM NaCl); blots with anti-CHD1 and anti-dRtf1; four biological replicates

- binding: no binding
B1: RTF1 (protein, UniProt Q9W261 1-775)
chain: MGKRRTQSLIDSNSSDSDSESETNLESDLMSLAKKRKKPQTAAKSSSRSDSDSDWANNKAGAPSSKKKKRQKPSRDSSSSESNWDDDSQDERQPARQSPAQTQQEHKPPEQASQPAQLSEQEEGEVSDSDSDKSKSNSSSSGSDSSSSSSSSDSEFDDGFDDDLMGDDEDRRRLNGLSEKERETEIYKRIEQREIMRTRWEIERKLKLARRGEKNQEKSKNKGERAKKKKEKREKKARKAREAQAPLPTQASTSTLLDVEPKPSNEVRSASPLSTPALNRDAASTSAAVASIMPDDAASSAGVSDYFDHKERSKERKKNVEANKTDDKRSNAMALLKAKREGKAKREEEEAKRMAEKDRDDDKEELDSVSGCKSAVKLKASEIYSDDSGSSDWDEEEKPAGKRSRSNSSKASSESEDEEKAPQRPVFITTREDLNKLRLSRYKMERFVNLPIFESTVLNCFVRISIGNNGQKPVYRVAEIVGVVETGKIYSLGTTRTNRGLRLKHGTQERVFRLEFISNQEFTENEFNKWNEVCQQSHVQMPTIDLIAIKQNDIKKALNYEFKDEDVDKIVEEKNRFRNRPTNYAMKKTCLMKERDAAMLRGDYDIAQDLGQQIDELENRASELDKRRSHTLNLISYINDRNRKKNVEDAEKAILEEARANKGLKISDPFTRRITQPRMGFKGAKKDEDDMQLAPLPPPPPGKKRPNEAGTSSASVRSTDSKDYSLYSLHDFDIDLDVPLPVNTNSVPKPASKPAETVSKRSLNLEDYKKKRGLI
